# According to patent publication US10894770B2, “Fullerene derivative and n-type semiconductor material” (DAIKIN INDUSTRIES, LTD., priority 2015, dated 2021):
# Experiment: Solar cell for testing with the fullerene derivative as n-type semiconductor and PTB7 as p-type; current and voltage under pseudo solar light irradiation
# Conditions: for FF (fill factor) / Open Voltage / Short-circuit Current / Conversion Efficiency: P-type semiconductor material PTB7, pseudo solar light of 100 mW; for Conversion Efficiency: FF(Voc×Jsc/Pin)×100; for Voc: open voltage as listed in Table 2 beside the LUMO level
Structure (SMILES),FF (fill factor),Open Voltage,Short-circuit Current,Conversion Efficiency,Voc
"CCCCCCC1N(c2ccccc2)CC23C4=c5ccc6c7ccc8c9ccc%10c%11ccc%12c%13c(c%14c%15c2c5c6c2c7c8c5c9c%10c(c%13%11)c%14c5c%152)C13C=%12C=C4 (centres unmarked) [Control Compound 2, reference compound]",0.67,0.76 V,14.21 mA/cm^2,7.27%,0.76 V
CCCCCCC1N(c2ccccc2)C(c2ccccc2)C23c4c5c6c7c8c9c(c%10c%11c2c2c%12c4c4c%13c5c5c7c7c8c8c%14c9c%10c9c%10c%11c2c2c%11c%12c4c4c%12c%13c5c5c7c7c8c8c%14c9c9c%10c2c2c%11c4c4c%12c5c7c5c8c9c2c45)C613 (centres unmarked) [Compound 1],0.63,0.79 V,14.52 mA/cm^2,7.28%,0.79 V
COCCOCCOCC1N(c2ccccc2)C(c2ccccc2)C23c4c5c6c7c8c9c(c%10c%11c2c2c%12c4c4c%13c5c5c7c7c8c8c%14c9c%10c9c%10c%11c2c2c%11c%12c4c4c%12c%13c5c5c7c7c8c8c%14c9c9c%10c2c2c%11c4c4c%12c5c7c5c8c9c2c45)C613 (centres unmarked) [Compound 3],0.65,0.79 V,13.66 mA/cm^2,6.96%,0.79 V
CCCCC(CC)CC1N(c2ccccc2)C(c2ccccc2)C23c4c5c6c7c8c9c(c%10c%11c2c2c%12c4c4c%13c5c5c7c7c8c8c%14c9c%10c9c%10c%11c2c2c%11c%12c4c4c%12c%13c5c5c7c7c8c8c%14c9c9c%10c2c2c%11c4c4c%12c5c7c5c8c9c2c45)C613 (centres unmarked) [Compound 2],0.61,0.82 V,14.96 mA/cm^2,7.48%,0.82 V
"C1=CC2=c3ccc4c5ccc6c7ccc8c9ccc%10c%11c%12c%13c%14c(c3c4c3c5c6c4c7c8c(c%119)c%13c4c%143)C23C(c2ccccc2)N(c2ccccc2)CC%123C=%101 (centres unmarked) [Control Compound 1, reference compound]",0.63,0.75 V,15.48 mA/cm^2,7.34%,0.75 V
CCCCOCC1N(c2ccccc2)C(c2ccccc2)C23c4c5c6c7c8c9c(c%10c%11c2c2c%12c4c4c%13c5c5c7c7c8c8c%14c9c%10c9c%10c%11c2c2c%11c%12c4c4c%12c%13c5c5c7c7c8c8c%14c9c9c%10c2c2c%11c4c4c%12c5c7c5c8c9c2c45)C613 (centres unmarked) [Compound 4],0.60,0.79 V,14.86 mA/cm^2,7.00%,0.79 V
"COC(=O)CCCC1(c2ccccc2)C23c4c5c6c7c8c9c(c%10c%11c2c2c%12c4c4c%13c5c5c7c7c8c8c%14c9c%10c9c%10c%11c2c2c%11c%12c4c4c%12c%13c5c5c7c7c8c8c%14c9c9c%10c2c2c%11c4c4c%12c5c7c5c8c9c2c45)C613 (centres unmarked) [[60]PCBM, [6,6]-phenyl-C61-butyric acid methyl ester, reference compound]",,,,,0.736 V
CCCCC(CC)CC1N(c2ccccc2)C(C)(C)C23c4c5c6c7c8c9c(c%10c%11c2c2c%12c4c4c%13c5c5c7c7c8c8c%14c9c%10c9c%10c%11c2c2c%11c%12c4c4c%12c%13c5c5c7c7c8c8c%14c9c9c%10c2c2c%11c4c4c%12c5c7c5c8c9c2c45)C613 (centres unmarked) [Compound 7],0.59,0.82 V,14.20 mA/cm^2,6.84%,
